Numbering of substitutions follows the chain as printed. A weaker result is weaker than the reference pair of the same experiment. Tags and fusion partners may be left off the protein sequences shown. For part of these data: For at least one entry, the source does not settle the construct or the ends of the probe. For part of these data: At least one verdict was read from the data and is not stated in words by the source.
Assays:
Experiment in all cases: EMSA
[1] = biological target: T1, GLH-1 WT (Caenorhabditis elegans) (UniProt P34689); conditions: 2 mM MgCl2, 10 uM protein, 2 uM RNA, with and without 2 mM ATP; 25 mM HEPES pH 7.4, 150 mM NaCl, 2 mM MgCl2, +/- 2 mM ATP, 30 min at RT; native 8% PAGE in TBE, cold room; recombinant protein; residues 1-763; protein details: FLAG; label: 5'-Cy3 (Methods), legend of Fig 5F says 5'-FAM
T1 sequence (looked up): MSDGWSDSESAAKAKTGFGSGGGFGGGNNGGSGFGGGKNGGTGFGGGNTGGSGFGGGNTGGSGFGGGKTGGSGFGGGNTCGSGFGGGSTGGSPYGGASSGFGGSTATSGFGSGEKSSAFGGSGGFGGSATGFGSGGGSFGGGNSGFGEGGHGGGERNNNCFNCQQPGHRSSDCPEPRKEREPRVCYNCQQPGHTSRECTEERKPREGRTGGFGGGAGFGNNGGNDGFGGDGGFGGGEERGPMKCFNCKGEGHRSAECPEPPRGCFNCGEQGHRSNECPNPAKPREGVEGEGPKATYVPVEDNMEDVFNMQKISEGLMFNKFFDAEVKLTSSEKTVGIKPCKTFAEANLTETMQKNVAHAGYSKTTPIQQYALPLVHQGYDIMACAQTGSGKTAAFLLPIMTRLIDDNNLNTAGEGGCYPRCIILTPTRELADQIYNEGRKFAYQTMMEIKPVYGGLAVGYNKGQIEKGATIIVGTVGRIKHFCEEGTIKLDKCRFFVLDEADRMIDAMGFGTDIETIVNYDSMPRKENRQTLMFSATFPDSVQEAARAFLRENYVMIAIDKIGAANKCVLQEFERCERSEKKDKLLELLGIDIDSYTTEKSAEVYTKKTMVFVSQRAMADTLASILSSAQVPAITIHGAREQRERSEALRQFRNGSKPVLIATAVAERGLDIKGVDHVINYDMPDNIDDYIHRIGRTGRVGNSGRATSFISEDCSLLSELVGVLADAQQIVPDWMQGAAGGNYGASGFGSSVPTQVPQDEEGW

[2] = biological target: T2, GLH-1(DQAD) E500Q (Caenorhabditis elegans) (UniProt P34689); conditions: no ATP, 2 mM MgCl2, 10 uM protein, 2 uM RNA; 25 mM HEPES pH 7.4, 150 mM NaCl, 2 mM MgCl2, +/- 2 mM ATP, 30 min at RT; native 8% PAGE in TBE, cold room; recombinant protein; protein details: FLAG; label: 5'-Cy3 (Methods), legend of Fig 5F says 5'-FAM
T2 sequence (looked up, limits assumed): T1 sequence (looked up) with E500Q

[3] = biological target: T3, GLH-1(K391A) (Caenorhabditis elegans) (UniProt P34689); conditions: 2 mM MgCl2, 10 uM protein, 2 uM RNA, with and without 2 mM ATP; 25 mM HEPES pH 7.4, 150 mM NaCl, 2 mM MgCl2, +/- 2 mM ATP, 30 min at RT; native 8% PAGE in TBE, cold room; recombinant protein; residues 1-763; protein details: FLAG; label: 5'-Cy3 (Methods), legend of Fig 5F says 5'-FAM
T3 sequence (looked up): T1 sequence (looked up) with K391A

Measured: binding result

GUCAAAGAUAGCCUUGACCUUG [22-nt ssRNA oligo]
binds more weakly: all assays above

From PMC9887883, “A family of C. elegans VASA homologs control Argonaute pathway specificity and promote transgenerational silencing”
